# The list shows a part of the results. Repeats in this data set agree poorly, so a single value says little.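 Free-swimming zebrafish larvae were assessed for O-bend response probability to dark flashes (naive: first five; training: remaining flashes across four 60-flash blocks; test: later 60-flash block) and for OMR turning toward alternating leftward/rightward LED motion. Six treated larvae were compared against sixty 0.1% DMSO controls; hits required |SSMD|≥2.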
# System: Danio rerio larvae (5 dpf, TLF)
# Assay: Prob-Test (SSMD vs DMSO vehicle); higher = higher than vehicle (e.g. higher dark-flash O-bend response probability, or better optomotor performance)
# Details: 10 µM; pre-incubation: 30-90 min
row,Structure (SMILES),Prob-Test
1,O=c1ncccn1[C@@H]1O[C@H](CO)[C@H](O)[C@@H]1O [Zebularine],0.14
2,CN[C@@H]1[C@H](O[C@H]2[C@H](O[C@H]3[C@H](O)[C@@H](O)[C@@H](NC(=N)N)[C@@H](O)[C@@H]3NC(=N)N)O[C@@H](C)[C@@]2(O)C=O)O[C@H](CO)[C@H](O)[C@H]1O.CN[C@@H]1[C@H](O[C@H]2[C@H](O[C@H]3[C@H](O)[C@@H](O)[C@@H](NC(=N)N)[C@@H](O)[C@@H]3NC(=N)N)O[C@@H](C)[C@@]2(O)C=O)O[C@H](CO)[C@H](O)[C@H]1O.O=S(=O)(O)O.O=S(=O)(O)O.O=S(=O)(O)O [Streptomycin sulfate],-0.715
3,C=Cc1c(C)c2cc3nc(cc4[nH]c(cc5nc(cc1[nH]2)C(C)=C5CCC(=O)O)c(CCC(=O)OC)c4C)[C@@]1(C)C3=CC=C(C(=O)OC)[C@H]1C(=O)OC [Verteporfin (Visudyne)],-0.0105
4,COC(=O)N[C@H](C(=O)N[C@@H](Cc1ccccc1)[C@@H](O)CN(Cc1ccc(-c2ccccn2)cc1)NC(=O)[C@@H](NC(=O)OC)C(C)(C)C)C(C)(C)C.O=S(=O)(O)O [Atazanavir Sulfate],0.22
5,CCC(CC)[C@H](NC(C)=O)[C@@H]1[C@H](O)[C@@H](C(=O)O)C[C@H]1NC(=N)N.O.O.O [Peramivir Trihydrate],0.262
6,C=CC(=O)Nc1cccc(Oc2nc(Nc3ccc(N4CCN(C)CC4)cc3)ncc2Cl)c1,-0.0437
7,CC(NC(=O)c1ccccc1/N=C/c1c(O)ccc2ccccc12)c1ccccc1 (stereo not given) [Sirtinol],-0.219
8,"CN1CCN(c2ccc3nc(-c4c(N)c5c(F)cccc5[nH]c4=O)[nH]c3c2)CC1 [Dovitinib (TKI-258, CHIR-258)]",-0.813
9,CCCCC(=O)N(Cc1ccc(-c2ccccc2-c2nn[nH]n2)cc1)[C@H](C(=O)O)C(C)C [Valsartan],0.0613
10,CN(C)CCN1C(=O)c2cccc3cc(N)cc(c23)C1=O [Amonafide],-0.568
11,Nc1nc(=O)c2ncn(CCC(CO)CO)c2[nH]1 [Penciclovir],-0.0523
12,Cl.c1ccc(C2CN3CCSC3=N2)cc1 (stereo not given) [Tetramisole HCl],0.379
13,COc1ccc([C@H]2CNC(=O)C2)cc1OC1CCCC1 [S- (+)-Rolipram],-0.372
14,N[C@@H]1CN(c2c(F)cc3c(=O)c(C(=O)O)cn([C@@H]4C[C@@H]4F)c3c2Cl)CC12CC2 [Sitafloxacin Hydrate],-0.661
15,Nc1nc(N)c2nc(-c3cccc(O)c3)c(-c3cccc(O)c3)nc2n1,0.231
16,"Cn1c(=O)n(-c2ccc(C(C)(C)C#N)cc2)c2c3cc(-c4cnc5ccccc5c4)ccc3ncc21 [BEZ235 (NVP-BEZ235, Dactolisib)]",-0.878
17,CC(C)(C)NC[C@H](O)COc1nsnc1N1CCOCC1.O=C(O)/C=C/C(=O)O [Timolol Maleate],0.316
18,CC(C(=O)O)c1ccc2c(c1)[nH]c1ccc(Cl)cc12 (stereo not given) [Carprofen],0.204
19,CNC(=O)c1cccc(-c2ccc3c(N4CCOC[C@@H]4C)nc(N4CCOC[C@@H]4C)nc3n2)c1,0.266
20,COC(=O)Nc1nc2ccc(C(=O)c3ccc(F)cc3)cc2[nH]1 [Flubendazole],-0.132

row,Structure (SMILES),Prob-Test
1,CCc1ccc(CCOc2ccc(CC3SC(=O)NC3=O)cc2)nc1.Cl (stereo not given) [Pioglitazone HCl],-0.989
2,CN/C(=N\C#N)NCCSCc1nc[nH]c1C [Cimetidine],0.493
3,CC(C)NCC(O)c1ccc(O)c(O)c1.Cl (stereo not given) [Isoprenaline HCl],0.209
4,Cl.Nc1c2c(nc3ccccc13)CCCC2 [Tacrine HCl],0.294
5,C[C@H]1C[C@H]2[C@@H]3CCC4=CC(=O)C=C[C@]4(C)[C@@H]3C(=O)C[C@]2(C)[C@]1(O)C(=O)CO [Meprednisone],0.54
6,CN(C)CCCN1c2ccccc2CCc2ccc(Cl)cc21.Cl [Clomipramine HCl],-1.37
7,COc1ccc(-c2cc3c(C)nc(N)nc3n([C@H]3CC[C@H](OCCO)CC3)c2=O)cn1,-1.42
8,O=C(NNc1ccccc1)c1ccncc1,0.547
9,CC(C)/N=c1/cc2n(-c3ccc(Cl)cc3)c3ccccc3nc-2cc1Nc1ccc(Cl)cc1 [Clofazimine],-0.636
10,CCCc1nc(C(C)(C)O)c(C(=O)OCc2oc(=O)oc2C)n1Cc1ccc(-c2ccccc2-c2nn[nH]n2)cc1 [Olmesartan Medoxomil],-0.0305
11,Cc1ccc(C(=O)C(C)CN2CCCCC2)cc1.Cl (stereo not given) [Tolperisone HCl],0.385
12,O=c1cc(N2CCOCC2)oc2c(-c3ccccc3)cccc12,-0.0304
13,CC[C@@H](C)[C@@H]1NC(=O)[C@@H](CCCN)NC(=O)[C@@H](NC(=O)[C@@H](NC(=O)[C@@H](CCC(=O)[O-])NC(=O)[C@H](CC(C)C)NC(=O)C2CN=C([C@@H](N)[C@@H](C)CC)S2)[C@H](C)CC)CCCCNC(=O)[C@H](CC(N)=O)NC(=O)[C@@H](CC(=O)[O-])NC(=O)[C@H](Cc2c[nH]cn2)NC(=O)[C@H](Cc2ccccc2)NC1=O.[Zn+2] (stereo not given in full) [Bacitracin zinc],-0.268
14,COc1ccc2[nH]c(S(=O)Cc3ncc(C)c(OC)c3C)nc2c1 (stereo not given) [Omeprazole],-0.383
15,COC(c1ccccc1)(c1ccccc1)[C@H](Oc1nc(C)cc(C)n1)C(=O)O [Ambrisentan],0.0913
16,O=S(=O)([O-])CCS.[Na+] [Mesna],-0.506
17,C[C@H]1NC(=O)NC1=O [Methylhydantoin-5-(D)],-0.157
18,CCN(CC)C(=O)[C@]1(c2ccccc2)C[C@@H]1CN.Cl [Milnacipran HCl],-0.0307
19,CCn1cc(C(=O)O)c(=O)c2cc(F)c(N3CCNCC3)cc21 [Norfloxacin (Norxacin)],0.0192
20,CC(C)OC(=O)OCOP(=O)(CO[C@H](C)Cn1cnc2c(N)ncnc21)OCOC(=O)OC(C)C.O=C(O)/C=C\C(=O)O [Tenofovir Disoproxil Fumarate],0.369

# Two compounds drawn at random from those above, as already listed:
row,Structure (SMILES),Prob-Test
13,CC[C@@H](C)[C@@H]1NC(=O)[C@@H](CCCN)NC(=O)[C@@H](NC(=O)[C@@H](NC(=O)[C@@H](CCC(=O)[O-])NC(=O)[C@H](CC(C)C)NC(=O)C2CN=C([C@@H](N)[C@@H](C)CC)S2)[C@H](C)CC)CCCCNC(=O)[C@H](CC(N)=O)NC(=O)[C@@H](CC(=O)[O-])NC(=O)[C@H](Cc2c[nH]cn2)NC(=O)[C@H](Cc2ccccc2)NC1=O.[Zn+2] (stereo not given in full) [Bacitracin zinc],-0.268
1,O=c1ncccn1[C@@H]1O[C@H](CO)[C@H](O)[C@@H]1O [Zebularine],0.14
